Data: the supplement of paper PMC10849652
Some of the results follow.

Amino acid sequences for entries named in this document (tags omitted). A change or cut given only in a name is not applied to a line headed by its entry.
UniProt Q9H944: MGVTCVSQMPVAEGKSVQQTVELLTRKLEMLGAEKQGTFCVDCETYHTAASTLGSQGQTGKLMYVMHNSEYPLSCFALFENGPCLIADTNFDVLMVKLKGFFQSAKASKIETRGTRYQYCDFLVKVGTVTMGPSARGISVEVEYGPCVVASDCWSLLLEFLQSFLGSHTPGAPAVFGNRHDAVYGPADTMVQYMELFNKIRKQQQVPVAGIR
UniProt Q96N66: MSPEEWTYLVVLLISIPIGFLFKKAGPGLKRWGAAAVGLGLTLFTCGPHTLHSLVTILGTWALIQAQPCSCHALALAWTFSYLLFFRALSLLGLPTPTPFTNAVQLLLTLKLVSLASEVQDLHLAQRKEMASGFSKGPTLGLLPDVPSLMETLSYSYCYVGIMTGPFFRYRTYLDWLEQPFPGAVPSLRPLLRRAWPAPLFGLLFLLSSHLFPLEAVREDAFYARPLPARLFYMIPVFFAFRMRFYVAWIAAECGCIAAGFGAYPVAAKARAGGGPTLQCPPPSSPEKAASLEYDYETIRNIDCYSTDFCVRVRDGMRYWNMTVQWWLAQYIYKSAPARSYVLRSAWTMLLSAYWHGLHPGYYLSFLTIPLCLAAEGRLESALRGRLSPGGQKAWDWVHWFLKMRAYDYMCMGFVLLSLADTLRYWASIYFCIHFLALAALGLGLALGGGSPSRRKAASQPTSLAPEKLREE
UniProt P25205: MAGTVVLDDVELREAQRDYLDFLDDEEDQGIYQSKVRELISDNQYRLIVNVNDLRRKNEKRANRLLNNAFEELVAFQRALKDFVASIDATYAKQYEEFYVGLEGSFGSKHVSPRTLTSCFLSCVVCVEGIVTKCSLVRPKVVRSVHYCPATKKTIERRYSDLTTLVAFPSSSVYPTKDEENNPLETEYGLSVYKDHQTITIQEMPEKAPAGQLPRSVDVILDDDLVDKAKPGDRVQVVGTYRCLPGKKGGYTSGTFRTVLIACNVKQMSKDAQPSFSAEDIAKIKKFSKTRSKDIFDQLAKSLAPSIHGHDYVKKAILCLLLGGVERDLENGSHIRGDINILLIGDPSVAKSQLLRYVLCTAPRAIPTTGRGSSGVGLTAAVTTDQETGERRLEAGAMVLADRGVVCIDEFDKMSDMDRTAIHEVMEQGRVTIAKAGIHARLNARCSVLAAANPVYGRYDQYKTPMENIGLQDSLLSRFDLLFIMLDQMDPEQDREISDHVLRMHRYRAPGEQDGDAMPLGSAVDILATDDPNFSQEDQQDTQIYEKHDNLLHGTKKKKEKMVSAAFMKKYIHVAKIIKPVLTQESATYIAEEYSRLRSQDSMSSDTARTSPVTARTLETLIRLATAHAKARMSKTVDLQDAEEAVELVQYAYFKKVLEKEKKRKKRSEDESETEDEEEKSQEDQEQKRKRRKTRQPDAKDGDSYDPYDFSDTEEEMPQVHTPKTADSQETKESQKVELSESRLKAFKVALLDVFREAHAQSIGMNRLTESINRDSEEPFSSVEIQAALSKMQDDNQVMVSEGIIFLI
UniProt Q09328: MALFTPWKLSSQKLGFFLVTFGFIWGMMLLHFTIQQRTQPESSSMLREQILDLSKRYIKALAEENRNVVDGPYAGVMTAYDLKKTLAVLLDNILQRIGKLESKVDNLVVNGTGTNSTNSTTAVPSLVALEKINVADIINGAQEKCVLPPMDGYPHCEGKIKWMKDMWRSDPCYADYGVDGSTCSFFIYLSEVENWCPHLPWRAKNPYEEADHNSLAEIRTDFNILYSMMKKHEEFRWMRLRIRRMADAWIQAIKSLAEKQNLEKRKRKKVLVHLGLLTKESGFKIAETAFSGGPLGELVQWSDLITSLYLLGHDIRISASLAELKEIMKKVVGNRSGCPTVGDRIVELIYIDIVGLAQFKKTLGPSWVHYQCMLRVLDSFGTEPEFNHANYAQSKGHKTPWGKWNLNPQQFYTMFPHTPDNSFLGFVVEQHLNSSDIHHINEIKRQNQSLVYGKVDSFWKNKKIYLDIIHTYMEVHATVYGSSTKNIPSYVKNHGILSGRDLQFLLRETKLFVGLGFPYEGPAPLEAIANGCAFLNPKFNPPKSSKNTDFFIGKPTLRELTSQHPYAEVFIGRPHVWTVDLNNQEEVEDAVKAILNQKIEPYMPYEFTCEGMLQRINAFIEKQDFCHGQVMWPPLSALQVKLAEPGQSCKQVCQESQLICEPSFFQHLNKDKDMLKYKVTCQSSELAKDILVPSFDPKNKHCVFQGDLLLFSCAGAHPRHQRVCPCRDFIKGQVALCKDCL
UniProt Q96HR3: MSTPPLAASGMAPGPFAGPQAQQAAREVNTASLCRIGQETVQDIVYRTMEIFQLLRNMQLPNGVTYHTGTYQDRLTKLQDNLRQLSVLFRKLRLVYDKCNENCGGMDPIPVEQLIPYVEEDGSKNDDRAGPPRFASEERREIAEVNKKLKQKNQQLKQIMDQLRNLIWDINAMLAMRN
UniProt P43121, whole entry, looked up: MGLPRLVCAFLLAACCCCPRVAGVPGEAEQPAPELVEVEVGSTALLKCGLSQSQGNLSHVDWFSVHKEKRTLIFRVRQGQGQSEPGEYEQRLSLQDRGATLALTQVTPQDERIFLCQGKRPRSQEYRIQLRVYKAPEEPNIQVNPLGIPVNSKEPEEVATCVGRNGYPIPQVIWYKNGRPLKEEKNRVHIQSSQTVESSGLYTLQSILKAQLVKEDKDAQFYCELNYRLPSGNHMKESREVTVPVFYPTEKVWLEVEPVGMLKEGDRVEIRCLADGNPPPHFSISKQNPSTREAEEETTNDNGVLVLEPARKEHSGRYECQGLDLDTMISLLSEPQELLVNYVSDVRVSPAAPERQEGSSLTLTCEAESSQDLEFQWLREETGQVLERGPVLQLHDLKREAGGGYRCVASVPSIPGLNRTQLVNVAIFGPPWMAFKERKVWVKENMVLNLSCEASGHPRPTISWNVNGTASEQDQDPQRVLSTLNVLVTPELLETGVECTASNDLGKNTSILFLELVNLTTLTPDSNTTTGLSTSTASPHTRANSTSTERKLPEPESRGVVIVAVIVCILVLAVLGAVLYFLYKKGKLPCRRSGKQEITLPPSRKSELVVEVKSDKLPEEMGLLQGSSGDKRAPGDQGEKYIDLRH
UniProt Q07820, whole entry, looked up: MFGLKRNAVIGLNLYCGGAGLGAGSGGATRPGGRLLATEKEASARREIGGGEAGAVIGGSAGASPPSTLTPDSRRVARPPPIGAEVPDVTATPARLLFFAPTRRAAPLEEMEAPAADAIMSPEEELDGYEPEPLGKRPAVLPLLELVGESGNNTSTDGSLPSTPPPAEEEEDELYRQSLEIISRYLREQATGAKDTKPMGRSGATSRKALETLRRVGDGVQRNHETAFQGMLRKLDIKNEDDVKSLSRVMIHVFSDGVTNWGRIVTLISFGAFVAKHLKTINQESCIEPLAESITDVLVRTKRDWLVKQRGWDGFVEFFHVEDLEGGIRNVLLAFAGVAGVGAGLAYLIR
UniProt P49736, whole entry, looked up: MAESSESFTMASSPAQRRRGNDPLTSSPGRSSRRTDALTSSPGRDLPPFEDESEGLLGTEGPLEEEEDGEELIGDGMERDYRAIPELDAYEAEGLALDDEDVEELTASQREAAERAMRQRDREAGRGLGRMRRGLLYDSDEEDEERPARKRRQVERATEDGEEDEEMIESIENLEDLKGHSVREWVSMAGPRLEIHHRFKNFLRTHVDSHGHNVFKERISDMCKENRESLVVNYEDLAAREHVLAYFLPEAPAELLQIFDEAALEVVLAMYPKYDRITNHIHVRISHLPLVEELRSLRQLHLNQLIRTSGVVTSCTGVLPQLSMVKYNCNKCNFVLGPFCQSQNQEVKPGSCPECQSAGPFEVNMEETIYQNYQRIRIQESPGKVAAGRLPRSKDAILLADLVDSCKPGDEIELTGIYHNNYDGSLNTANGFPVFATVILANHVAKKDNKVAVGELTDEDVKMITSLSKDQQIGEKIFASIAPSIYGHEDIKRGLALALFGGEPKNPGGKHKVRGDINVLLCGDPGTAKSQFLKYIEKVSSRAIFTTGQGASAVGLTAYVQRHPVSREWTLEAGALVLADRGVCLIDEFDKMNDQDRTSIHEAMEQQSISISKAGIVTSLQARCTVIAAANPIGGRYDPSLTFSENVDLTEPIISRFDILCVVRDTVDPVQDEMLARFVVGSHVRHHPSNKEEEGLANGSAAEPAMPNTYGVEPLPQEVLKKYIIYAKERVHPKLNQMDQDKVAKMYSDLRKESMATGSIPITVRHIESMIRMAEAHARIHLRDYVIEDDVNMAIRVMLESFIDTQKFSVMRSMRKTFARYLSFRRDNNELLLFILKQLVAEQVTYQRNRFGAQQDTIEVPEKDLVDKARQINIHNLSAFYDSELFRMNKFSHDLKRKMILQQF
UniProt Q8NI22: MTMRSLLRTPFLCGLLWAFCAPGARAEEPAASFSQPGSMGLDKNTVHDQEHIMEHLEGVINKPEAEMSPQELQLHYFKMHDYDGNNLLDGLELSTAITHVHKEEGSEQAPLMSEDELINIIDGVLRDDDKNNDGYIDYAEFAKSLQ
UniProt Q02078: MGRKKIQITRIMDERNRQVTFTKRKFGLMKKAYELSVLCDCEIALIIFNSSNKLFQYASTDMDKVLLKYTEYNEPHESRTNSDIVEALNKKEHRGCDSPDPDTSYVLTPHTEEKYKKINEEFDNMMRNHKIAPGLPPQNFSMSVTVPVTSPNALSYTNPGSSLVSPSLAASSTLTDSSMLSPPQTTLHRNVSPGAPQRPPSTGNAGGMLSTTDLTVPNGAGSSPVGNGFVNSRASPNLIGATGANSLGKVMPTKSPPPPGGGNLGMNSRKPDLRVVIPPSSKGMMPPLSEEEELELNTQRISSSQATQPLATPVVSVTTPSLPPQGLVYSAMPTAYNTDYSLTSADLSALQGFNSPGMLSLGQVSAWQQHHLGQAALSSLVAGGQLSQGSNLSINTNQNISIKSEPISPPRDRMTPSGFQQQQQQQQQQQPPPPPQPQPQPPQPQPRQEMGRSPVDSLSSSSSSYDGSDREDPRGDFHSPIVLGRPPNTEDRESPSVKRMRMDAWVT
UniProt Q6ZNC8: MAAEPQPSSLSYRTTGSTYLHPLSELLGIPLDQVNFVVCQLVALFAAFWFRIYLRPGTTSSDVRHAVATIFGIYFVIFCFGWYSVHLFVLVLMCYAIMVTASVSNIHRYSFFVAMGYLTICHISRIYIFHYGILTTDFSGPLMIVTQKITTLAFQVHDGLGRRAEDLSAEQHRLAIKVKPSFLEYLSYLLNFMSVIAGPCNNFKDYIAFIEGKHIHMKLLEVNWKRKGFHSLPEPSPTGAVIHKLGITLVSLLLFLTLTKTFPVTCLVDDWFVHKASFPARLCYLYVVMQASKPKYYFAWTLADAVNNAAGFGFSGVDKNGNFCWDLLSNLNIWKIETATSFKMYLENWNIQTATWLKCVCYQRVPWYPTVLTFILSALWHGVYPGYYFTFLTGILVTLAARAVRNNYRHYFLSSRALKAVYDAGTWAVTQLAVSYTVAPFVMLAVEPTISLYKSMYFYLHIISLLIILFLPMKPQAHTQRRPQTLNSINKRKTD
UniProt Q12866: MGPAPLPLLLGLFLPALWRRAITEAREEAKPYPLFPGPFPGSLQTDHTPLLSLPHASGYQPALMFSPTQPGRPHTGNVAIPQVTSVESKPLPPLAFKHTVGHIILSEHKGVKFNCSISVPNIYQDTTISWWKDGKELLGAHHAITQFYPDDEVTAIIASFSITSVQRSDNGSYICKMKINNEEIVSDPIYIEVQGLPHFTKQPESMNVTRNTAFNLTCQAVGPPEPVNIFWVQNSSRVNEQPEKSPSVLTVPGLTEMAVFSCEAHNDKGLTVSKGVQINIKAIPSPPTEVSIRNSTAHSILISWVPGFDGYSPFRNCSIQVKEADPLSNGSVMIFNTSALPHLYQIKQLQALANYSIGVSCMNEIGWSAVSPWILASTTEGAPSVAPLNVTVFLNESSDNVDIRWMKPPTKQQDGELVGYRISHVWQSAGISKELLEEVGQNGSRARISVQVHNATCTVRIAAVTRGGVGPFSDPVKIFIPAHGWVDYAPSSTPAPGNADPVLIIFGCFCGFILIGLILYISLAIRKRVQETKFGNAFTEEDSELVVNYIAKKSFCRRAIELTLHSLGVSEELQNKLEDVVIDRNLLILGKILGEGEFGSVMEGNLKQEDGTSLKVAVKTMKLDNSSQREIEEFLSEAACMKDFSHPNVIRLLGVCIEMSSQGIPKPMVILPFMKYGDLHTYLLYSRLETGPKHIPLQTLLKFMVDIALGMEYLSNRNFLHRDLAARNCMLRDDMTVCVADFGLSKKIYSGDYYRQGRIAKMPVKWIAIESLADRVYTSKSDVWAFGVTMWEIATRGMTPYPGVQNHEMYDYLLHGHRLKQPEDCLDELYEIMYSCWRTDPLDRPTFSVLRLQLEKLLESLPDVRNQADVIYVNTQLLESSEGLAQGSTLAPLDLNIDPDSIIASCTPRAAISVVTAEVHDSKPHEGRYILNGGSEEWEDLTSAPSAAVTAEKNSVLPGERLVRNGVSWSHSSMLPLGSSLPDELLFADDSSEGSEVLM
UniProt Q9BTT4: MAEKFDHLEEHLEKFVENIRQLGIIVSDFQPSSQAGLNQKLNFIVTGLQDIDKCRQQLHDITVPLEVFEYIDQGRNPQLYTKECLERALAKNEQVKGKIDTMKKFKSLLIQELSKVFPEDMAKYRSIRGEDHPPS

Tests used:
Experiment in all cases: log2 fold change, soluble protein after heating vs DMSO (PISA); higher = thermal stabilisation; K562 cells, 10 uM, 30 min; active = over 0.2 and 3.5 SD of the protein, either way, in both replicates (recomputed)
[1] = compound: CC[C@@H]1C(=O)N(C)c2cnc(Nc3ccc(C(=O)NC4CCN(C)CC4)cc3OC)nc2N1C1CCCC1
Procedure, shortened: (§1)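 K562 cells at 2×10^6 cells/mL were given 10 μM compound for 30 min. Aliquots then went through 3 min of heating across 48°C-58°C, were pooled, and were extracted in PBS with 0.5% NP-40 at 4°C, and the supernatant after 21,000xg for 90 min was quantified by TMTpro 16plex LC-MS/MS with channel sums equalised. Thermal stability relative to control samples, from duplicates, is given as log2 fold change.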

[2] = compound: CC[C@@H]1C(=O)N(C)c2cnc(Nc3ccc(C(=O)N[C@H]4CC[C@H](N5CCN(CC6CC6)CC5)CC4)cc3OC)nc2N1C(C)C [volasertib]
Procedure, shortened: as §1

[3] = compound: CC[C@H](C)N1C=C(C2=C(C=C(C=C21)C3=CN=C(C=C3)N4CCNCC4)C(=O)NCC5=C(C=C(NC5=O)C)C)C
Procedure, shortened: as §1

[4] = compound: CC[C@H](C)[C@@H](C(=O)N[C@@H]([C@@H](C)O)C(=O)N[C@@H](CC(C)C)C(=O)[C@]1(CO1)C)NC(=O)[C@H]([C@@H](C)CC)N(C)C(=O)C [epoxomicin]
Procedure, shortened: as §1

[5] = compound: CCn1c(C(=O)N(C2CC2)C2CC2)cc2c3c(ncn3C)c(Nc3cc(C)n(C)n3)nc21
Procedure, shortened: as §1

[6] = compound: CCn1cc(-c2ccnc3[nH]c(-c4cccc(CN(C)C)c4)cc23)c(-c2ccc(NC(=O)N(C)C)cc2)n1
Procedure, shortened: as §1

[7] = compound: CN(C)CC(=O)Nc1ccc2[nH]c(=O)c3ccccc3c2c1
Procedure, shortened: as §1

[8] = compound: CN(CCOC1=CC=C(C=C1)C[C@H]2C(=O)NC(=O)S2)C3=CC=CC=N3 (racemic) [rosiglitazone]
Procedure, shortened: as §1

[9] = compound: CN1C2=C(C3=C1C(=O)N(N=C3)CC4=CC(=CC=C4)N)SC(=C2)S(=O)C
Procedure, shortened: as §1

[10] = compound: CN1CCC(CNc2ccc3ncc(-c4cccc(OC(F)(F)F)c4)n3n2)CC1
Procedure, shortened: as §1

[11] = compound: CN1CCN(CCOc2cc(OC3CCOCC3)c3c(Nc4c(Cl)ccc5c4OCO5)ncnc3c2)CC1 [saracatinib]
Procedure, shortened: as §1

[12] = compound: CN1CCN(c2nc(C3=C(c4c[nH]c5ccccc45)C(=O)NC3=O)c3ccccc3n2)CC1 [sotrastaurin]
Procedure, shortened: as §1

[13] = compound: CN1CC[C@H](c2c(O)cc(O)c3c(=O)cc(-c4ccccc4Cl)oc23)[C@H](O)C1 [alvocidib]
Procedure, shortened: as §1

[14] = compound: CN1CCc2c(c3ccccc3n2Cc2ccc(C(=O)NO)cc2)C1 [Tubastatin A]
Procedure, shortened: as §1

[15] = compound: CNC(=O)C1=CC=CC=C1NC2=NC(=NC=C2Cl)NC3=C(C=C(C=C3)N4CCOCC4)OC
Procedure, shortened: as §1

[16] = compound: CNC(=O)c1ccc(Nc2ncc(C(F)(F)F)c(NCc3nccnc3N(C)S(C)(=O)=O)n2)cc1 [defactinib]
Procedure, shortened: as §1

[17] = compound: CNCc1ccc(-c2[nH]c3cc(F)cc4c3c2CCNC4=O)cc1 [rucaparib]
Procedure, shortened: as §1

[18] = compound: CNc1nc(-c2ccc3c(N)n[nH]c3c2)cc(N2C[C@@H](C(=O)NC3CCCCC3)CC[C@H]2C)n1
Procedure, shortened: as §1

[19] = compound: COC(=O)N[C@@H](C)CNc1nccc(-c2cn(C(C)C)nc2-c2cc(Cl)cc(NS(C)(=O)=O)c2F)n1 [encorafenib]
Procedure, shortened: as §1

[20] = compound: COC(=O)[C@H](CCSC)NC(=O)C1=C(C=C(C=C1)NC[C@H](CS)N)C2=CC=CC=C2
Procedure, shortened: as §1

Measured: log2 fold change

MED20 (UniProt Q9H944)
inactive: [1] -0.069 | [2] -0.106 | [3] -0.008 | [4] -0.017 | [5] -0.027 | [6] -0.024 | [7] 0.001 | [8] 0.006 | [9] 0.075 | [10] -0.01 | [11] -0.084 | [12] 0.018 | [13] -0.04 | [14] -0.03 | [15] -0.061 | [16] -0.027 | [17] -0.057 | [18] -0.08 | [19] 0.036 | [20] -0.035

MBOAT7 (UniProt Q96N66)
inactive: [1] -0.03 | [2] 0 | [3] -0.04 | [4] 0.033 | [5] 0.018 | [6] 0.004 | [7] -0.024 | [8] 0.011 | [9] -0.05 | [10] 0.115 | [11] 0.069 | [12] -0.014 | [13] -0.021 | [14] -0.049 | [15] -0.008 | [16] 0.01 | [17] -0.021 | [18] -0.004 | [19] -0.015 | [20] -0.027

MED14 (UniProt O60244)
inactive: [1] 0.038 | [2] 0.073 | [3] 0.24 | [4] -0.071 | [5] -0.05 | [6] 0.031 | [7] -0.007 | [8] 0.068 | [9] 0.085 | [10] 0 | [11] -0.104 | [12] -0.143 | [13] -0.123 | [14] -0.066 | [15] 0.104 | [16] 0.06 | [17] 0.09 | [18] -0.015 | [19] 0.304 | [20] 0.071

MCM3 isoform 2 (UniProt P25205)
inactive: [1] -0.014 | [2] -0.068 | [3] 0.026 | [4] 0.075 | [5] 0 | [6] -0.058 | [7] 0.006 | [8] 0.011 | [9] -0.064 | [10] -0.032 | [11] 0.022 | [12] -0.036 | [13] -0.068 | [14] -0.025 | [15] 0.009 | [16] -0.062 | [17] -0.023 | [18] -0.011 | [19] -0.006 | [20] -0.016

MEF2D (UniProt Q14814)
inactive: [1] 0.07 | [2] 0.024 | [3] 0.006 | [4] 0.044 | [5] 0.029 | [6] -0.012 | [7] 0.033 | [8] 0.051 | [9] -0.069 | [10] -0.084 | [11] -0.002 | [12] 0.047 | [13] -0.048 | [14] -0.015 | [15] -0.003 | [16] -0.035 | [17] -0.009 | [18] -0.064 | [19] -0.026 | [20] 0.107

MGAT5 (UniProt Q09328)
inactive: [1] 0.04 | [2] -0.12 | [3] -0.068 | [4] 0.166 | [5] 0 | [6] -0.045 | [7] -0.011 | [8] -0.004 | [9] -0.05 | [10] -0.029 | [11] 0.123 | [12] 0.053 | [13] 0.011 | [14] -0.035 | [15] 0.029 | [16] -0.038 | [17] -0.015 | [18] -0.054 | [19] -0.056 | [20] 0.14

MCMBP (UniProt Q9BTE3)
inactive: [1] -0.167 | [2] -0.198 | [3] 0.056 | [4] 0.099 | [5] -0.061 | [6] -0.109 | [7] 0.059 | [8] 0.055 | [9] -0.02 | [10] 0.045 | [11] -0.008 | [12] -0.042 | [13] -0.032 | [14] 0.022 | [15] 0.05 | [16] -0.096 | [17] 0.128 | [18] 0.003 | [19] -0.059 | [20] -0.025

MED30 (UniProt Q96HR3)
inactive: [1] 0.042 | [2] -0.013 | [3] -0.019 | [4] -0.109 | [5] 0.108 | [7] -0.022 | [8] 0.039 | [9] 0.033 | [11] -0.016 | [12] 0.06 | [13] -0.024 | [14] -0.037 | [15] 0.021 | [16] -0.015 | [17] -0.008 | [18] -0.085 | [19] 0.041 | [20] 0.029

MCAM (UniProt P43121)
inactive: [1] 0.117 | [2] 0.072 | [3] -0.044 | [4] -0.011 | [5] 0.028 | [6] -0.069 | [7] -0.029 | [8] -0.003 | [9] -0.027 | [10] 0.19 | [11] -0.003 | [12] 0.038 | [13] -0.033 | [14] 0.004 | [15] -0.009 | [16] -0.023 | [17] -0.056 | [18] 0.032 | [19] 0 | [20] 0.005

MCL1 (UniProt Q07820)
inactive: [1] -0.03 | [2] -0.038 | [3] -0.033 | [4] 0.308 | [6] -0.032 | [7] 0.052 | [9] -0.035 | [10] -0.209 | [11] 0.011 | [12] -0.114 | [14] 0.268 | [15] -0.022 | [16] -0.015 | [17] 0.029 | [18] -0.063 | [19] 0.004 | [20] 0.047

MCM2 (UniProt P49736)
inactive: [1] -0.001 | [2] -0.089 | [3] 0.039 | [4] 0.021 | [5] -0.004 | [6] -0.06 | [7] 0.013 | [8] 0.032 | [9] -0.085 | [10] -0.097 | [11] 0.007 | [12] 0.003 | [13] -0.097 | [14] -0.006 | [15] 0.015 | [16] -0.102 | [17] -0.046 | [18] -0.026 | [19] -0.011 | [20] -0.011

MCFD2 (UniProt Q8NI22)
inactive: [1] 0.019 | [2] 0.087 | [3] -0.005 | [4] 0.152 | [5] 0.01 | [6] -0.005 | [7] 0.192 | [8] -0.048 | [9] -0.055 | [10] 0.148 | [11] -0.042 | [12] 0.118 | [13] -0.018 | [14] -0.017 | [15] -0.034 | [16] -0.008 | [17] 0.102 | [18] -0.172 | [19] -0.051 | [20] 0.248

MCM7 (UniProt P33993)
inactive: [1] -0.032 | [2] -0.035 | [3] 0.049 | [4] 0.02 | [5] 0.018 | [6] -0.024 | [7] 0.022 | [8] 0.012 | [9] -0.09 | [10] -0.112 | [11] 0.033 | [12] -0.003 | [13] -0.152 | [14] -0.016 | [15] -0.022 | [16] -0.1 | [17] -0.029 | [18] 0 | [19] -0.007 | [20] -0.005

MEF2A (UniProt Q02078)
inactive: [1] -0.025 | [2] -0.035 | [3] 0.028 | [4] 0.052 | [5] -0.066 | [12] -0.197 | [14] 0.066 | [15] -0.016 | [17] 0.095 | [19] 0.035

2 consecutive records from above, for reference:
MCM2 (UniProt P49736)
inactive: [1] -0.001 | [2] -0.089 | [3] 0.039 | [4] 0.021 | [5] -0.004 | [6] -0.06 | [7] 0.013 | [8] 0.032 | [9] -0.085 | [10] -0.097 | [11] 0.007 | [12] 0.003 | [13] -0.097 | [14] -0.006 | [15] 0.015 | [16] -0.102 | [17] -0.046 | [18] -0.026 | [19] -0.011 | [20] -0.011

MCFD2 (UniProt Q8NI22)
inactive: [1] 0.019 | [2] 0.087 | [3] -0.005 | [4] 0.152 | [5] 0.01 | [6] -0.005 | [7] 0.192 | [8] -0.048 | [9] -0.055 | [10] 0.148 | [11] -0.042 | [12] 0.118 | [13] -0.018 | [14] -0.017 | [15] -0.034 | [16] -0.008 | [17] 0.102 | [18] -0.172 | [19] -0.051 | [20] 0.248

Additional results

MBOAT1 (UniProt Q6ZNC8)
inactive: [1] -0.07 | [2] -0.099 | [3] 0.004 | [4] 0.049 | [5] -0.025 | [7] 0.138 | [8] 0.02 | [9] -0.062 | [11] 0.076 | [12] 0.113 | [13] 0.019 | [14] -0.092 | [15] 0.022 | [16] -0.085 | [17] 0.026 | [18] 0.006 | [19] 0.068 | [20] -0.019

MERTK (UniProt Q12866)
inactive: [1] -0.077 | [2] -0.145 | [3] 0.021 | [4] -0.01 | [5] 0.006 | [7] -0.026 | [8] -0.029 | [9] 0.028 | [11] -0.164 | [12] -0.029 | [13] 0.081 | [14] -0.083 | [15] -0.026 | [16] -0.02 | [17] 0.032 | [18] -0.077 | [19] 0.054 | [20] 0.107

MED10 (UniProt Q9BTT4)
inactive: [1] 0.091 | [2] 0.074 | [3] 0.078 | [4] 0.163 | [5] 0.011 | [6] 0.072 | [7] -0.065 | [9] -0.02 | [10] 0.256 | [11] 0.005 | [12] 0.008 | [13] -0.091 | [14] 0.086 | [15] 0 | [16] 0.035 | [17] 0.088 | [18] 0.013 | [19] 0 | [20] -0.017
